Common to all, as to assay: log2 fold change, soluble protein after heating vs DMSO (PISA); higher = thermal stabilisation; K562 lysate, 10 uM; active = over 0.2 and 3.5 SD of the protein, either way, in both replicates (recomputed)
Compound in assay [1]: CS(=O)(=O)CCNCc1ccc(-c2ccc3ncnc(Nc4ccc(OCc5cccc(F)c5)c(Cl)c4)c3c2)o1 [lapatinib]
Summed up: (§1)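 Pellets of K562 cells were dounce-homogenised in PBS pH 7.4 with 1 mM MgCl2, and the crude extract was held at 1 mg/mL protein for a 30 min treatment with 10 μM compound. Aliquots were heated for 3 min over 48°C-58°C and pooled before NP-40 was added to 0.5% at 4°C. The supernatant from 21,000xg for 90 min was quantified by TMTpro 16plex LC-MS/MS with channel sums equalised. Values are reported from duplicates as log-two fold change in thermal stability relative to solvent controls.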

By UniProt entry, the sequences of proteins in these tests, tags left out. Where a name states a change or a piece, a line headed by the entry shows the natural chain unless it says otherwise.
UniProt Q13526, whole entry, looked up: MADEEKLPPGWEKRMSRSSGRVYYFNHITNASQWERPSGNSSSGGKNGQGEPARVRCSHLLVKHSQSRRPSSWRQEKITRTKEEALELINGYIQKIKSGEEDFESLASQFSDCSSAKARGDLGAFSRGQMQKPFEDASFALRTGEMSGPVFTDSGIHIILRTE
UniProt Q9NWS0, whole entry, looked up: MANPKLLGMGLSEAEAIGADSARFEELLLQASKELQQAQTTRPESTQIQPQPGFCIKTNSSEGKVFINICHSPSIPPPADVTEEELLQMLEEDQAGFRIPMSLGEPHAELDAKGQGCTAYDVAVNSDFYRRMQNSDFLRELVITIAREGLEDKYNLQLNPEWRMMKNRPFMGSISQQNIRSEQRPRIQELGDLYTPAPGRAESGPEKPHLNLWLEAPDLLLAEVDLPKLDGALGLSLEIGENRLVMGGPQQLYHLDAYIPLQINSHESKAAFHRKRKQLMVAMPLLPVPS
UniProt Q96G03: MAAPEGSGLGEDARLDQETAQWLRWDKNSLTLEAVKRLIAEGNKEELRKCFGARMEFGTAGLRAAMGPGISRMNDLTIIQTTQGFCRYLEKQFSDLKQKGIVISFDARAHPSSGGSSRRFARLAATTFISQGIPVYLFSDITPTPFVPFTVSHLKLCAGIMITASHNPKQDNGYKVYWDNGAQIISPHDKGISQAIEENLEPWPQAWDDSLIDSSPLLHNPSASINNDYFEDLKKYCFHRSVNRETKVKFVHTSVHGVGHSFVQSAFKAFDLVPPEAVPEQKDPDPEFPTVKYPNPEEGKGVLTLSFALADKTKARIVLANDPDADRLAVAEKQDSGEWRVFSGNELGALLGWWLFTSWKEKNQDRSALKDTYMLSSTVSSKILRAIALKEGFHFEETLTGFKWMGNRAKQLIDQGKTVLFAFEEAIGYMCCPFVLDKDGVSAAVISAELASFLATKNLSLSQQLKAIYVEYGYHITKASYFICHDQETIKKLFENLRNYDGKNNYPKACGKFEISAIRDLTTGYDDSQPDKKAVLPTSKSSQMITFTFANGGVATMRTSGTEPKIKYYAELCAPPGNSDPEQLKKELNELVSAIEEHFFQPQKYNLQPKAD
UniProt Q99570, whole entry, looked up: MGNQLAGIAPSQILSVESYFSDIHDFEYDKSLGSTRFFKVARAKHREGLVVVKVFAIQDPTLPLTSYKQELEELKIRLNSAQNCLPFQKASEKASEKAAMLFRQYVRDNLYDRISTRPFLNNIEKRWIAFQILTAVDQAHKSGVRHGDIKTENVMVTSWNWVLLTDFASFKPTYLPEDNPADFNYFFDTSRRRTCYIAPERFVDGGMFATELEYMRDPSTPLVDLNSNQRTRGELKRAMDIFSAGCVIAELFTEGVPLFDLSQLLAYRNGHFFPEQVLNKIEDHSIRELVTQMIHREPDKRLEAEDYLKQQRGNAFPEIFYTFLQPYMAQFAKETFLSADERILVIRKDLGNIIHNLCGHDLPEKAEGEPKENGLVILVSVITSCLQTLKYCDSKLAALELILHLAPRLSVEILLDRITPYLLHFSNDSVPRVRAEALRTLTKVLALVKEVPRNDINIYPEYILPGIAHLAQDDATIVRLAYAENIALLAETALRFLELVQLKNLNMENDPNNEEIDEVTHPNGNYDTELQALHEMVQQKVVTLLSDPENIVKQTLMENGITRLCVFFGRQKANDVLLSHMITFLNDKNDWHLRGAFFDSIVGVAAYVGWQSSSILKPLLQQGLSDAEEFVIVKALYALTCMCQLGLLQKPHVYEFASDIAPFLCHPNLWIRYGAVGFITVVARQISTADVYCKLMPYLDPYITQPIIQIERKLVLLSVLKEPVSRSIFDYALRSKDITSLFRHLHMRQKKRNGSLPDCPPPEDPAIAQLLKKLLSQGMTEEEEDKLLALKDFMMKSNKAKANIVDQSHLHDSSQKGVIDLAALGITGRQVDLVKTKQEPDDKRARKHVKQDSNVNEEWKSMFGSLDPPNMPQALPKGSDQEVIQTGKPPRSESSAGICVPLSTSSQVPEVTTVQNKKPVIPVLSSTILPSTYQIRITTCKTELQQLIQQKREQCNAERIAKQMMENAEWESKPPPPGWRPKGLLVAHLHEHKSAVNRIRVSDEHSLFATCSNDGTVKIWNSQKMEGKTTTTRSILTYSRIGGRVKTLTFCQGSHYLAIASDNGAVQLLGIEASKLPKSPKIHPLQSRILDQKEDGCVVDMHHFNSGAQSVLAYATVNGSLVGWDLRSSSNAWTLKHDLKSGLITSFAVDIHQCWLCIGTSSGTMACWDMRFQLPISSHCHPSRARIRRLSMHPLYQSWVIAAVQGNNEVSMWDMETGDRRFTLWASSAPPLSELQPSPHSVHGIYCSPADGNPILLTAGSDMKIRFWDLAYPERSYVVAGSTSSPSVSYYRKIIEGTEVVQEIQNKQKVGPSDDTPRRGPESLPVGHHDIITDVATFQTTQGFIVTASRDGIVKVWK
UniProt Q8NHP8: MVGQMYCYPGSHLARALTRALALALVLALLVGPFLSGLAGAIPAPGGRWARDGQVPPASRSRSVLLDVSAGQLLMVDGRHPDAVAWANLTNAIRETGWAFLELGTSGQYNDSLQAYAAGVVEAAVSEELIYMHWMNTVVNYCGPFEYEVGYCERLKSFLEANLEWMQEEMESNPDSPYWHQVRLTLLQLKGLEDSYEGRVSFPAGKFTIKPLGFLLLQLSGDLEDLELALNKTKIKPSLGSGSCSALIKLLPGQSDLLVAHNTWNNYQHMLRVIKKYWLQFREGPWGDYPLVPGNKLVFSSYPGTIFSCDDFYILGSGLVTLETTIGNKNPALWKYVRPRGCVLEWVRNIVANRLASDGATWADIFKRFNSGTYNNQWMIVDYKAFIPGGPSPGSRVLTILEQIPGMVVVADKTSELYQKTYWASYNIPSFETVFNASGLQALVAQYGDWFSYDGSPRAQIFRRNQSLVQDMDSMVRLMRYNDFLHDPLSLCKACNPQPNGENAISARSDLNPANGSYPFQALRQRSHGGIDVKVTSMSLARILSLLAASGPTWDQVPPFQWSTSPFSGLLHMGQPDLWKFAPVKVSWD
UniProt P42356, whole entry, looked up: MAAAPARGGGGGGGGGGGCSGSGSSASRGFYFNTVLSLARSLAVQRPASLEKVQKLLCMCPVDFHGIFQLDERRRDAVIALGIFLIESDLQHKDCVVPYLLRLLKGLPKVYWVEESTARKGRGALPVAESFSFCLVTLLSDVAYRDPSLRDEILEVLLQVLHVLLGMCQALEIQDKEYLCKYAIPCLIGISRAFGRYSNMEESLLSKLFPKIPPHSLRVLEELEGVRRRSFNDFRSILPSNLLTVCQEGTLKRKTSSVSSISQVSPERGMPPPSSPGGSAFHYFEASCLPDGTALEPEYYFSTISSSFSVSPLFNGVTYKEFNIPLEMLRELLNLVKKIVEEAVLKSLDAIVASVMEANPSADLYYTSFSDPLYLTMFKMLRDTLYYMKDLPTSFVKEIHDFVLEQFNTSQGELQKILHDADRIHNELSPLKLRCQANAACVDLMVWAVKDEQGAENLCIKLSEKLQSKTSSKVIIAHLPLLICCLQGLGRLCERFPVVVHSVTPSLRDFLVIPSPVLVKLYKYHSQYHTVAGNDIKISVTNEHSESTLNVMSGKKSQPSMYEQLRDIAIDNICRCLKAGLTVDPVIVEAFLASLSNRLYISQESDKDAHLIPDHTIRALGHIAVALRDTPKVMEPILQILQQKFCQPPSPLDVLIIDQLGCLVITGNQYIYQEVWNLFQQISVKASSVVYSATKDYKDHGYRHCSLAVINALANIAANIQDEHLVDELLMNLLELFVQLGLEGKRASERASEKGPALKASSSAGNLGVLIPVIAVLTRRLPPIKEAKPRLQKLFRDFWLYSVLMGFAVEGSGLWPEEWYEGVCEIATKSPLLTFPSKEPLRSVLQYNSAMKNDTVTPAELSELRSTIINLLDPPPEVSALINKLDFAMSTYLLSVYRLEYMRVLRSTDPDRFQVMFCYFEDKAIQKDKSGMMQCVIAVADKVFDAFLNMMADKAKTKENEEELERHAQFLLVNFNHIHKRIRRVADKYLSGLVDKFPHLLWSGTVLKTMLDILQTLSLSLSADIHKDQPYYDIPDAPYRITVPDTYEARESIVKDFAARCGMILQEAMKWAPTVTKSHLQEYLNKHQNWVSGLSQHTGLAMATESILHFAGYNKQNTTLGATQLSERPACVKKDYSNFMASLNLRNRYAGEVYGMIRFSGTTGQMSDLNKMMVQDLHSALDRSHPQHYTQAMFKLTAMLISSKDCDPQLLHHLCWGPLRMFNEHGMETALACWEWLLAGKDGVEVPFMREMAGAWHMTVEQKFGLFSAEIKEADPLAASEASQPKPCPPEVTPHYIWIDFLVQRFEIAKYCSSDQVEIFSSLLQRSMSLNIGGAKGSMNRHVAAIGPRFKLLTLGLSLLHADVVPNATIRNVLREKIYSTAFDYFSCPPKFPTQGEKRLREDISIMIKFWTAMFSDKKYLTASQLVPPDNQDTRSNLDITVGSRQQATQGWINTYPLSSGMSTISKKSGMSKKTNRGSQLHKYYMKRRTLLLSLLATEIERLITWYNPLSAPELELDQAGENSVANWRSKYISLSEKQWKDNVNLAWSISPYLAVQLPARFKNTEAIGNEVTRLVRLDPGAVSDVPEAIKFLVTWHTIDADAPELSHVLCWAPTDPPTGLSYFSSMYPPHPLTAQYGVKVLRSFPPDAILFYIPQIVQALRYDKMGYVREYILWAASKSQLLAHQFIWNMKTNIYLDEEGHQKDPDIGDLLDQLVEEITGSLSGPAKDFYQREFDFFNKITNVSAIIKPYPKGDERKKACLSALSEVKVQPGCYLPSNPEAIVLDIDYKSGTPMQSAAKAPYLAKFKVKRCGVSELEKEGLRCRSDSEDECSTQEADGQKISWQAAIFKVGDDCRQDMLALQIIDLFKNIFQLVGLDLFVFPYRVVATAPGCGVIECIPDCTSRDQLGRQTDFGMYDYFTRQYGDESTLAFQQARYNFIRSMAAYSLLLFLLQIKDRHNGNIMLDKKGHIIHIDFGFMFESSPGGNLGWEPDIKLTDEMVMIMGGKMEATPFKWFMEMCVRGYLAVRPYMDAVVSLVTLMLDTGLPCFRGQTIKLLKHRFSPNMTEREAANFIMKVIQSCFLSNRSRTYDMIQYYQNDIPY
UniProt Q5H8A4: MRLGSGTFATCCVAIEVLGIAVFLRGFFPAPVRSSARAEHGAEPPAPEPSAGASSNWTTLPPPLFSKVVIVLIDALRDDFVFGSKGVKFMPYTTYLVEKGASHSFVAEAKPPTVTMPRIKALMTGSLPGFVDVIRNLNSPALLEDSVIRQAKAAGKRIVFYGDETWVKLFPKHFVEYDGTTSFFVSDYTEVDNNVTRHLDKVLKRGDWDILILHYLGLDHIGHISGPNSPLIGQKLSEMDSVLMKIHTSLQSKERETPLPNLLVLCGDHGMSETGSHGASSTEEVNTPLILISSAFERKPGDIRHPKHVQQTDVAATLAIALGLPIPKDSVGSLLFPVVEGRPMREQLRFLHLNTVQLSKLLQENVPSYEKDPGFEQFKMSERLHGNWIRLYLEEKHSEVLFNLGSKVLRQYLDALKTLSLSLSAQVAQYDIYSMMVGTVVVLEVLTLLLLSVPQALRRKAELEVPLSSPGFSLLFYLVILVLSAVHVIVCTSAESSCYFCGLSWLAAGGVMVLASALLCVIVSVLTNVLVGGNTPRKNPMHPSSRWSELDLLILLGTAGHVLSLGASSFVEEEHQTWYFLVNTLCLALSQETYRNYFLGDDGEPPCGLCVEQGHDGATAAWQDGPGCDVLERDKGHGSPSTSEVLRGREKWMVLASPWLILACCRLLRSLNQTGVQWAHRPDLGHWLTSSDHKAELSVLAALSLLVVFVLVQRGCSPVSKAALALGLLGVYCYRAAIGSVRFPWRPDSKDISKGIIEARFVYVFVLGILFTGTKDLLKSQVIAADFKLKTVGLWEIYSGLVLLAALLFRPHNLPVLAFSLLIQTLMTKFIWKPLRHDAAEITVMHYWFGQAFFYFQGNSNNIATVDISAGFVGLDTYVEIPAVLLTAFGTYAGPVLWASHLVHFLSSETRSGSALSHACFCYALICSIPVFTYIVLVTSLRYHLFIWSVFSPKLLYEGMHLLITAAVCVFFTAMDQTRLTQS
UniProt Q8TCD6: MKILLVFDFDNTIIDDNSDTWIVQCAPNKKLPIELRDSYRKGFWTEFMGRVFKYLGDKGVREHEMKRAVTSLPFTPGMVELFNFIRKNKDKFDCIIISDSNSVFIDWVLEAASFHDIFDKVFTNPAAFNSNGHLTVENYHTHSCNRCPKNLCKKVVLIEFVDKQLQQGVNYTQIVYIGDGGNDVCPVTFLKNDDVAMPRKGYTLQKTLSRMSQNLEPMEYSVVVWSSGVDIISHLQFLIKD

Compound in assay [2]: CS(=O)(=O)N1CCN(Cc2cc3nc(-c4cccc5[nH]ncc45)nc(N4CCOCC4)c3s2)CC1 [pictilisib]
Summed up: as §1

Compound in assay [3]: C[C@@H](Oc1cc(-c2cnn(C3CCNCC3)c2)cnc1N)c1c(Cl)ccc(F)c1Cl [crizotinib]
Summed up: as §1

Compound in assay [4]: C[C@H](C1=CC=C(C=C1)C(=O)NC2=C3C=CNC3=NC=C2)N
Summed up: as §1

Compound in assay [5]: C[C@H](Nc1ncnc2nc[nH]c12)c1cc2cccc(Cl)c2c(=O)n1-c1ccccc1 [duvelisib]
Summed up:
as §1

Compound in assay [6]: Cc1cc(Nc2cc(CN3CCOCC3)c3nc(C)c(Cc4ccc(Cl)cc4F)n3n2)n[nH]1 [gandotinib]
Summed up:
as §1

Compound in assay [7]: Cc1cc(Nc2cc(N3CCN(C)CC3)nc(Sc3ccc(NC(=O)C4CC4)cc3)n2)n[nH]1 [tozasertib]
Summed up: as §1

Compound in assay [8]: Cc1ccc(-n2nc(C(C)(C)C)cc2NC(=O)Nc2ccc(OCCN3CCOCC3)c3ccccc23)cc1 [doramapimod]
Summed up: as §1

Compound in assay [9]: Cc1ccc(NC(=O)c2ccc(CN3CC[C@H](N(C)C)C3)c(C(F)(F)F)c2)cc1Nc1nccc(-c2cncnc2)n1 [bafetinib]
Summed up:
as §1

Compound in assay [10]: Cc1cccc(CC(=O)N2CCc3c2ccc(-c2cn(C)c4ncnc(N)c24)c3F)n1
Summed up:
as §1

Some of the results follow.

Take PKP3 isoform 2 (UniProt Q9Y446): the log2 fold change was inactive: -0.007 in assay [1]; inactive: -0.004 in assay [2]; inactive: 0.043 in assay [3]; inactive: -0.024 in assay [4]; inactive: -0.048 in assay [5]; inactive: 0.04 in assay [6]. The log2 fold change in [7] is inactive: -0.039; in assay [8] it was inactive: 0.08; in assay [9], inactive: -0.085; in assay [10] it was inactive: 0.027.

As for PIN1 (UniProt Q13526), the log2 fold change in assay [1] was inactive: 0.019; in assay [2], inactive: 0.003; in assay [3], inactive: 0.017; in assay [4], inactive: 0.008; in [5] it was inactive: 0.046; in [6], inactive: 0.076. Also, the log2 fold change was inactive: 0.01 in assay [7], inactive: -0.028 in [8], inactive: -0.02 in assay [9] and inactive: 0.03 in assay [10].

Regarding PIH1D1 (UniProt Q9NWS0), the log2 fold change in [1] was inactive: 0.041; in [2], inactive: -0.017; in assay [3], inactive: -0.005; in assay [4], inactive: 0.024; in assay [5], inactive: 0.01; in assay [6] it was inactive: 0.013. Moreover, the log2 fold change in assay [7] was inactive: 0.02; in assay [8], inactive: 0.014; in assay [9], inactive: 0.058; in assay [10], inactive: 0.005.

With PHKA1 (UniProt P46020), the log2 fold change is inactive: -0.117 in [1]; inactive: -0.003 in assay [2]; inactive: -0.001 in assay [3]; inactive: -0.042 in assay [4]; inactive: -0.044 in assay [5]; inactive: 0.069 in assay [6]. Moreover, the log2 fold change was inactive: 0.009 in [7], inactive: 0.024 in [8], inactive: 0.051 in [9] and inactive: -0.047 in assay [10].

As to PLAA (UniProt Q9Y263), the log2 fold change in assay [1] is inactive: -0.014; in assay [2], inactive: -0.01; in [3] it was inactive: -0.014; in assay [4], inactive: -0.079; in assay [5], inactive: 0.002; in assay [6] it was inactive: 0.015. The log2 fold change is inactive: 0.023 in [7], inactive: 0 in assay [8], inactive: -0.005 in [9] and inactive: 0.067 in [10].

PGM2 (UniProt Q96G03): the log2 fold change was inactive: -0.01 in assay [1]; inactive: 0.01 in [2]; inactive: 0.021 in [3]; inactive: 0 in [4]; inactive: 0.012 in assay [5]; inactive: 0.013 in assay [6]. For the same target, the log2 fold change in assay [7] is inactive: -0.015; in assay [8] it was inactive: 0.001; in [9], inactive: 0.026; in [10] it was inactive: -0.035.

For the target PHF3 (UniProt Q92576), the log2 fold change was inactive: 0.013 in [1]; inactive: -0.014 in assay [2]; inactive: -0.046 in assay [3]; inactive: -0.043 in [4]; inactive: 0.007 in [5]; inactive: 0.049 in assay [6]. The log2 fold change in [7] was inactive: -0.048; in assay [8], inactive: 0.068; in assay [9] it was inactive: -0.147; in [10], inactive: 0.033.

For PIK3R4 (UniProt Q99570), the log2 fold change in assay [1] was inactive: -0.02; in assay [2] it was inactive: 0.012; in assay [3], inactive: -0.087; in [4], inactive: -0.036; in [5] it was inactive: 0.081; in [6] it was inactive: 0.125. The log2 fold change in assay [7] was inactive: 0.016; in assay [8], inactive: -0.02; in [9] it was inactive: 0.02; in assay [10] it was inactive: 0.038.

Turning to PLBD2 (UniProt Q8NHP8), the log2 fold change in assay [1] was inactive: 0.035; in assay [2] it was inactive: -0.056; in assay [3], inactive: -0.018; in assay [4], inactive: -0.074; in [5], inactive: 0.005; in [6] it was inactive: 0.052. For the same target, the log2 fold change in assay [7] is inactive: 0.097; in assay [8], inactive: 0.007; in [9] it was inactive: 0.067; in assay [10] it was inactive: -0.02.

For PICALM (UniProt H0YEH1), the log2 fold change in [1] is inactive: 0.046; in [2], inactive: 0.016; in assay [3] it was inactive: -0.086; in assay [4] it was active: -0.47; in assay [5], inactive: -0.075; in assay [6] it was inactive: 0.238. Further, the log2 fold change in assay [7] is inactive: 0.152; in assay [8], inactive: 0.274; in assay [9], inactive: 0.018; in assay [10] it was active: 0.335.

Consider PI4KA (UniProt P42356), for which the log2 fold change is inactive: -0.03 in assay [1]; inactive: 0.097 in assay [2]; inactive: -0.005 in assay [3]; inactive: -0.043 in [4]; inactive: 0.189 in [5]; inactive: -0.033 in [6]. Also, the log2 fold change in [7] is inactive: 0.013; in assay [8] it was inactive: -0.002; in assay [9], inactive: -0.075; in [10], inactive: 0.073.

On to PGP (UniProt A6NDG6), for which the log2 fold change in assay [1] is inactive: 0.121; in [2] it was inactive: -0.011; in assay [3], inactive: 0.035; in assay [4], inactive: -0.068; in [5] it was inactive: -0.002; in assay [6], inactive: 0.029. Besides, the log2 fold change was inactive: 0.002 in [7], inactive: -0.026 in assay [8], inactive: 0.046 in [9] and inactive: -0.004 in assay [10].

Consider PIGG (UniProt Q5H8A4), for which the log2 fold change is inactive: -0.068 in assay [1]; inactive: 0.006 in assay [2]; inactive: -0.076 in [3]; inactive: 0.146 in [4]; inactive: 0.014 in assay [5]; inactive: -0.119 in assay [6]. The log2 fold change in assay [7] was inactive: 0.015; in assay [8], inactive: 0.048; in assay [9], inactive: -0.035; in assay [10], inactive: -0.039.

Take PHOSPHO2 (UniProt Q8TCD6): the log2 fold change is inactive: -0.043 in [1]; inactive: 0.015 in assay [2]; inactive: -0.001 in [3]; inactive: -0.063 in assay [4]; inactive: -0.044 in assay [5]; inactive: -0.009 in assay [6]. In addition, the log2 fold change was inactive: -0.184 in assay [7], inactive: -0.045 in [8], inactive: -0.024 in assay [9] and inactive: -0.002 in assay [10].

For PKLR (UniProt P30613), the log2 fold change was inactive: -0.012 in [1]; inactive: -0.004 in assay [2]; inactive: 0.018 in assay [3]; inactive: -0.012 in assay [4]; inactive: 0.004 in assay [5]; inactive: 0.037 in assay [6]. For the same target, the log2 fold change in assay [7] was inactive: -0.004; in assay [8] it was inactive: -0.029; in assay [9] it was inactive: 0; in assay [10], inactive: 0.002.
